Values from PubChem BioAssay AID1259405 (NCATS, 2018).

Purpose: 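Mouse-designed siRNAs used to find CHO productivity engineering targets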 (primary screen)
Cell system: Chinese hamster CHO-K1 ovary cells with stable secreted eGFP expression
Knock-down reagent: single siRNA against mouse genes, 0.8 pmol siRNA per well (2 µl of 400 nM stock)
Duration: 3 days
Measured: 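Percent of the per-plate non-targeting control median for intracellular GFP per well by laser scanning cytometry and for cell viability by ATP luminescence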
Reading the numbers: GFP, % of control: higher = more GFP per well, higher productivity; viability (ATP), % of control: higher = more viable cells (more ATP)
Call rule: 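a knock-down is called active if GFP reaches 120% or more of non-targeting control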
The deposit covers about 50,000 reagents; shown is an unselected part. Over the whole deposit, about 4,000 (8%) were called active. 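Mouse siRNA library applied to hamster cells; one well for each siRNA.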 The numbers tell different reagents against one gene apart. Reagent sequences are not shown.

target,siRNA no.,"GFP, % of control","viability (ATP), % of control",activity call
Tfpi2,1,82,122,inactive
Tfpi2,2,73.5,91.2,inactive
Tfpi2,3,37.5,21.7,inactive
Vmn1r93,1,60.8,38.5,inactive
Vmn1r93,2,70.6,75.6,inactive
Vmn1r93,3,50.5,52.3,inactive
Kcnc1,1,65.6,44.4,inactive
Kcnc1,2,116,95.4,inactive
Kcnc1,3,93.3,65.6,inactive
Fbxo2,1,61.7,67.1,inactive
Fbxo2,2,91.6,78.1,inactive
Fbxo2,3,50.1,66.6,inactive
Tll1,1,103,88.8,inactive
Tll1,2,66.2,68.8,inactive
Ccdc87,1,114,88.8,inactive
Ccdc87,2,133,51.1,active
Ccdc87,3,107,81.4,inactive
Pi4k2a,1,74.4,66.8,inactive
Gramd1a,1,58.6,86.8,inactive
Gramd1a,2,31.4,64.1,inactive
Gramd1a,3,54.4,35.5,inactive
Basp1,1,82.5,90.4,inactive
Basp1,2,81.5,96,inactive
Basp1,3,94.9,92.7,inactive
Vat1l,1,125,96.6,active
Vat1l,2,79.2,40.1,inactive
Vat1l,3,62.4,68.2,inactive
Ca7,1,52.8,50.3,inactive
Ca7,2,44.8,60.9,inactive
Ca7,3,54.9,79.7,inactive
Cds2,1,107,104,inactive
Cds2,2,105,116,inactive
Cds2,3,126,93.8,active
Polr3gl,1,71.6,99.5,inactive
Polr3gl,2,95.2,70.6,inactive
Polr3gl,3,49,67.4,inactive
Dpysl3,1,98.6,98.5,inactive
Dpysl3,2,88.3,99.5,inactive
Dpysl3,3,68.8,134,inactive
Pmaip1,1,96.1,73.2,inactive
Pmaip1,2,71,74.6,inactive
Pmaip1,3,69.5,72.2,inactive
Gpalpp1,1,81.4,102,inactive
Gpalpp1,2,45.1,70.2,inactive
Gpalpp1,3,83.7,83.6,inactive
Neil2,1,83.5,101,inactive
Neil2,2,78.6,78.8,inactive
Neil2,3,63.4,69.1,inactive
Aldh4a1,1,115,110,inactive
Aldh4a1,2,65.1,80.4,inactive
Aldh4a1,3,109,87.9,inactive
Tmem109,1,67.3,62.3,inactive
Tmem109,2,103,79.6,inactive
Tmem109,3,96.9,77.3,inactive
Or2o1,1,112,101,inactive
Or2o1,2,95.6,66.6,inactive
Or2o1,3,36.5,73.8,inactive
Sowaha,1,15.1,15.7,inactive
Sowaha,2,102,79.8,inactive
Sowaha,3,80.8,80.4,inactive
Or4k45,1,154,94.4,active
Or4k45,2,122,82.3,active
Or4k45,3,89.7,87.9,inactive
Apmap,1,63,58.1,inactive
Apmap,2,32,39.2,inactive
Apmap,3,79.7,92.9,inactive
Cckbr,1,98.1,66.6,inactive
Cckbr,2,48.7,48.1,inactive
Cckbr,3,72.1,62,inactive
Ino80b,1,62,72.3,inactive
Ino80b,2,4.14,2.47,inactive
Ino80b,3,144,124,active
Mrpl55,1,85.8,62.6,inactive
Mrpl55,2,105,90.3,inactive
Mrpl55,3,108,40.4,inactive
Rxfp4,1,64.1,81,inactive
Rxfp4,2,36.1,41.3,inactive
Rxfp4,3,46.9,64.8,inactive
Etnppl,1,64.5,73.5,inactive
Etnppl,2,23.5,60.1,inactive
Etnppl,3,96.6,116,inactive
Ecel1,1,67.1,82.5,inactive
Ecel1,2,105,70.9,inactive
Ecel1,3,132,85.2,active
